Test [1] concerns the target TREK-1 channel (KCNK2), transfected in COS-7 cells (mouse) (UniProt P97438). Description: co-IP; lysates (1% Triton X100, 50 mM NaCl, pH 7.5) of COS-7 cells co-transfected with TREK-1 and NTSR3/Sortilin; IP with rabbit polyclonal anti-TREK-1 or anti-NTSR3, protein-A beads overnight at 4°C; Western blot. (A western blot detects proteins with antibodies after separation by electrophoresis.)

By UniProt entry, the sequences of proteins in these tests, tags left out. Where a name states a change or a piece, a line headed by the entry shows the natural chain unless it says otherwise. Residues count along the entry.
UniProt P97438: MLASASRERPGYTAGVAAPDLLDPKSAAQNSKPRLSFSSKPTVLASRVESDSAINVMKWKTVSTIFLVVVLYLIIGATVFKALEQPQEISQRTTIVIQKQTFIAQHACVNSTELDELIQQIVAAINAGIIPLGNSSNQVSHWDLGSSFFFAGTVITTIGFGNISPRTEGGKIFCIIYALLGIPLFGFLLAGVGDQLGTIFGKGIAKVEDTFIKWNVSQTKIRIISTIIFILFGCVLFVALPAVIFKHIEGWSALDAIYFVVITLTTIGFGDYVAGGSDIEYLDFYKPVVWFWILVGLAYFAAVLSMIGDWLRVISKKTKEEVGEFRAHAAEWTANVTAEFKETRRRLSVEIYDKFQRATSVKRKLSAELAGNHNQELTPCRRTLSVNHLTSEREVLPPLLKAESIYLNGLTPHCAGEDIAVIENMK
UniProt Q99523, residues 78-831: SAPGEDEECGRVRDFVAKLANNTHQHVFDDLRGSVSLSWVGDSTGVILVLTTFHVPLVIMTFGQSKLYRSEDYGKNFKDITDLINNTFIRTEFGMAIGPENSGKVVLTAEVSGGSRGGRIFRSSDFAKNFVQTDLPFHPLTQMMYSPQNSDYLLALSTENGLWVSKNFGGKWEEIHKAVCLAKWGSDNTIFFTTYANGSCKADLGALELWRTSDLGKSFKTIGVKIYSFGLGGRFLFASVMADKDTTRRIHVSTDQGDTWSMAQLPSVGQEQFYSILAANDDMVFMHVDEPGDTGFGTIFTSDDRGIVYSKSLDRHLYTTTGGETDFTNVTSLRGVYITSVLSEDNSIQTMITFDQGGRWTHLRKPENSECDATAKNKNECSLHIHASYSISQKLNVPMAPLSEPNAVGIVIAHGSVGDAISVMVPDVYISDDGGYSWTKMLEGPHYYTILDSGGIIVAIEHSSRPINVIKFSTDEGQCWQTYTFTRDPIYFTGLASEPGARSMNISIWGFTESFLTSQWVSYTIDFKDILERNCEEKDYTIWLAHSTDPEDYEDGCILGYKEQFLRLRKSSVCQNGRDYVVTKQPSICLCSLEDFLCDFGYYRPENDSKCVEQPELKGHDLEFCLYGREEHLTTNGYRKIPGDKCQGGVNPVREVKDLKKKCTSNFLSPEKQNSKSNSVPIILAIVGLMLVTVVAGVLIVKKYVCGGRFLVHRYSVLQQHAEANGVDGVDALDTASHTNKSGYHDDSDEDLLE
UniProt Q6PHU5, residues 74-825: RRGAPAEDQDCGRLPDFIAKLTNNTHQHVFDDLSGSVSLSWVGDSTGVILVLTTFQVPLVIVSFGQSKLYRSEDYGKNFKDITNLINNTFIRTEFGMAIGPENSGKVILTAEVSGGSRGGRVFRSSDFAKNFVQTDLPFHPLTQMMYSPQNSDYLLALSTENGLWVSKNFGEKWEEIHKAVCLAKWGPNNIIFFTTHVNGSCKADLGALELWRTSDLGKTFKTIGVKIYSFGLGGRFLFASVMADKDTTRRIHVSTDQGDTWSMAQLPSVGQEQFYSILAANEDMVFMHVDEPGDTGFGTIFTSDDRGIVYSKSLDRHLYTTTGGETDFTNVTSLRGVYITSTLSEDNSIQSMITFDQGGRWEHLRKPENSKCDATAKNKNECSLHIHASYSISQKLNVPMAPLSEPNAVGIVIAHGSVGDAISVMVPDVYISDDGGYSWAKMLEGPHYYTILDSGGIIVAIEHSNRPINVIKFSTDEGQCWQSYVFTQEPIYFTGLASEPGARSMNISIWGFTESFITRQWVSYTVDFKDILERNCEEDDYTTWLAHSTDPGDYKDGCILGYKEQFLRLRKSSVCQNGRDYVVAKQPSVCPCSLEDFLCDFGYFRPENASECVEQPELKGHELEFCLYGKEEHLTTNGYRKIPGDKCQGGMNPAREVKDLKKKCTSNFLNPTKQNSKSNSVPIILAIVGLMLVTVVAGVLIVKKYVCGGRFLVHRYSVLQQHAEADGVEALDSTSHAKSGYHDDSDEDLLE
UniProt P30990: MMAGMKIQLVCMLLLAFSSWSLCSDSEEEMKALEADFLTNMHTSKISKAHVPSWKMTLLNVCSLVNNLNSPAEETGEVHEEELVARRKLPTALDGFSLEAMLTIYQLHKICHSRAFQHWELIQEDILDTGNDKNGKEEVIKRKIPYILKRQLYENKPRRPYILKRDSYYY

The target in test [2] is TREK-1 channel, endogenous in mouse neurons (mouse (endogenous in cortical neurons)) (UniProt P97438). Description: co-IP; lysates (1% Triton X100, 50 mM NaCl, pH 7.5) of mouse cortical neurons, endogenous proteins; IP with rabbit polyclonal anti-TREK-1 or anti-NTSR3, protein-A beads overnight at 4°C; Western blot.
Test [3] deals with NTSR3/Sortilin (neurotensin receptor 3), transfected in COS-7 cells (UniProt Q99523). In words: co-IP; lysates (1% Triton X100, 50 mM NaCl, pH 7.5) of COS-7 cells co-transfected with TREK-1 and NTSR3/Sortilin; IP with rabbit polyclonal anti-TREK-1 or anti-NTSR3, protein-A beads overnight at 4°C; Western blot.
In test [4] the target is NTSR3/Sortilin, endogenous in mouse cortical neurons (mouse (endogenous in cortical neurons)) (UniProt Q6PHU5). In words: co-IP; lysates (1% Triton X100, 50 mM NaCl, pH 7.5) of mouse cortical neurons, endogenous proteins; IP with rabbit polyclonal anti-TREK-1 or anti-NTSR3, protein-A beads overnight at 4°C; Western blot.
The target in test [5] is TREK-1 channel (KCNK2), transfected in COS-7 cells (mouse) (UniProt P97438). Description: condition: 10^-5 M (highest concentration of competitor, from the methods); radioligand binding; competition: homogenates of TREK-1 transfected COS-7 cells with 0.2 nM 125I-spadin and increasing unlabelled spadin, NT or Gln1-Arg16 (10^-10 to 10^-5 M); 50 mM Tris-HCl pH 7.4, 0.1% BSA; filtration; only the binder purified.

Test [6] has the same target. Description: radioligand binding; association kinetics of 0.2 nM 125I-spadin on whole COS-7 cells expressing TREK-1 at 37°C, Earle's Tris-Hepes buffer; wash with buffer or acid-NaCl; non-specific binding with 10 µM unlabelled spadin; only the binder purified.
Test [7] has the same target. In words: radioligand binding; competition: homogenates of TREK-1 transfected COS-7 cells with 0.2 nM 125I-spadin and increasing unlabelled spadin, NT or Gln1-Arg16 (10^-10 to 10^-5 M); 50 mM Tris-HCl pH 7.4, 0.1% BSA; filtration; only the binder purified.

These are yes or no findings as the source states them, for the method shown. For some of these results: Binding seen in cells or lysates may run through a third protein. Some binding calls cover weakened binding; strength is not graded here.

The record followed here is PMC2854129, “Spadin, a Sortilin-Derived Peptide, Targeting Rodent TREK-1 Channels: A New Concept in the Antidepressant Drug Design” (PLoS Biology, 2010).

With “NTSR3/Sortilin (neurotensin receptor 3), transfected in COS-7 cells (from UniProt Q99523 78-831)”, the binding result in test [1] is “binds”.

On to “NTSR3/Sortilin, endogenous in mouse cortical neurons (from UniProt Q6PHU5-1 74-825) (receptor)”, for which, in test [2], the binding result was “binds”.

For “TREK-1 channel (KCNK2), transfected in COS-7 cells (from UniProt P97438 1-426)”, the binding result in test [3] was “binds”.

Turning to “TREK-1 channel, endogenous in mouse neurons (from UniProt P97438 1-426)”, in test [4], the binding result is listed as “binds”.

In the case of “neurotensin (NT), unlabelled (from UniProt P30990 151-163) (peptide)”, in test [5], the binding entry was “no binding”.

In the case of YAPLPRWSGPIGVSWGLR (monoiodinated (125I) on Tyr0) [125I-labelled spadin (monoiodinated on Tyr0)], the binding entry in test [6] and in test [7] was “binds” in each case.
